Patent US20260265408A1, “GD2-SPECIFIC CHIMERIC ANTIGEN RECEPTOR EFFECTOR CELLS FOR USE IN THE TREATMENT OF SOLID TUMORS, POSSIBLY IN COMBINATION WITH ENHANCER OF ZESTE HOMOLOG 2 (EZH2) INHIBITORS” (priority 2023, published 2026)
At least one structure is not confirmed: it was looked up by name or label, or the drawing left a doubt.

Experiments:
Format in all cases: cell-based, human
Conditions in all cases: seven days pre-treatment, then 5 days co-culture, E:T 1:1
[1] = system: OS cell line HOS; assay: Long-term co-culture with OS cell line HOS
[2] = system: ARMS cell line RH4; assay: Long-term co-culture with ARMS cell line RH4
[3] = system: ARMS RH41; assay: Long-term co-culture with ARMS RH41
[4] = system: Ewing sarcoma A-673 cell line; assay: Long-term co-culture with Ewing sarcoma A-673 cell line
[5] = system: DAOY (SHH) cells; assay: Long-term co-culture with MB cell line DAOY

Measured: sensitization to cytolysis by GD2.CAR-28.4-1BBζ T-cells

CCN(c1cc(-c2ccc(CN3CCOCC3)cc2)cc(C(=O)NCc2c(C)cc(C)[nH]c2=O)c1C)C1CCOCC1 [Tazemetostat]
sensitizes: all assays above
